3 molecules from paper PMC8575788 can be followed below.

The chains behind the UniProt entries cited, without tags or fusion partners.
UniProt Q96QE3: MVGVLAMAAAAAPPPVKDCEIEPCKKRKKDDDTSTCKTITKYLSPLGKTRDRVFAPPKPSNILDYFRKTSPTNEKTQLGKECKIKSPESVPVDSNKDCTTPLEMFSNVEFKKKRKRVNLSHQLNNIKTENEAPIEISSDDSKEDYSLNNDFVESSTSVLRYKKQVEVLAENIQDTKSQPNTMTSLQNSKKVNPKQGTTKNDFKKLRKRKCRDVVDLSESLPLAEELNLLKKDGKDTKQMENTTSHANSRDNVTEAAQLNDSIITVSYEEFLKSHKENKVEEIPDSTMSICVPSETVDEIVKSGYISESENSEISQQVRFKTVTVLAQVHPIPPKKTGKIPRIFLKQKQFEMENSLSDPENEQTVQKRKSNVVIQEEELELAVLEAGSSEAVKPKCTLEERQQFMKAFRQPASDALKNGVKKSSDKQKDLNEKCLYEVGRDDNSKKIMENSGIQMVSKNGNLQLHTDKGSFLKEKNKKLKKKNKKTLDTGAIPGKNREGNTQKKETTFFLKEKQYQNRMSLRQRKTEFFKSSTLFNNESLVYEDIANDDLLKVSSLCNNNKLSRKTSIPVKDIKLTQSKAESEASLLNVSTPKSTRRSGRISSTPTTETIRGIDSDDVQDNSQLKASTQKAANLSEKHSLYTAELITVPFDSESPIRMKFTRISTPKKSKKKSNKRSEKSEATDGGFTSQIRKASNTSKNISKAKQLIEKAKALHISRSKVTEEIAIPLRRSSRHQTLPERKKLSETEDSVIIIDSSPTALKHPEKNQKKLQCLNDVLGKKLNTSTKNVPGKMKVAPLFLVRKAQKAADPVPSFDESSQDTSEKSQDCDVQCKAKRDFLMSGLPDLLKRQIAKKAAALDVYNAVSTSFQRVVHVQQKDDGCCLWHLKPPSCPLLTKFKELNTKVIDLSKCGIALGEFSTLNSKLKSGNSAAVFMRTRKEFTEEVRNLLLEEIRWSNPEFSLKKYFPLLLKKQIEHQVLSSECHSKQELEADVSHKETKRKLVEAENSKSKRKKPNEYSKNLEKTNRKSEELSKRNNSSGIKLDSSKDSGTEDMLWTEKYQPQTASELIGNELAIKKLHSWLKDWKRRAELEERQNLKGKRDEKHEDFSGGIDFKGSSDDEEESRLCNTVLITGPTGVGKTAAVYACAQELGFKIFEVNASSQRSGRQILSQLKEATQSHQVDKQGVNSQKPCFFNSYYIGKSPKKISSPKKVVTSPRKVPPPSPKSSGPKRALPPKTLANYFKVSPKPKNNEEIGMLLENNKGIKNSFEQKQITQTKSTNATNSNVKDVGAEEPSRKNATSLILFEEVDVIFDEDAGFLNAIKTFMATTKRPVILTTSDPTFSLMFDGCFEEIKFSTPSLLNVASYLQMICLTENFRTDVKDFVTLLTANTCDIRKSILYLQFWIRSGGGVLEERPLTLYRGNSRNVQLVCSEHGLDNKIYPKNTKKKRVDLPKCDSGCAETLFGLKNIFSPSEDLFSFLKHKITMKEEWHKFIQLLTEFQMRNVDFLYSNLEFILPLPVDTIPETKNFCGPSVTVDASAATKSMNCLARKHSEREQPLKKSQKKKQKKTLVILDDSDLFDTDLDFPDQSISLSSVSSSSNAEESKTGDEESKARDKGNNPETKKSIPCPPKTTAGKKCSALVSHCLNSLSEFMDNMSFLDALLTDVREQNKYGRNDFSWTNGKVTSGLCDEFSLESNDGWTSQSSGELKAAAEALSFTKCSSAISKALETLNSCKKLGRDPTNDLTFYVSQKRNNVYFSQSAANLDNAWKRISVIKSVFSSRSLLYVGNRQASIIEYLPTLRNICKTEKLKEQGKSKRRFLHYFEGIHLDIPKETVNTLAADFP
UniProt P35249: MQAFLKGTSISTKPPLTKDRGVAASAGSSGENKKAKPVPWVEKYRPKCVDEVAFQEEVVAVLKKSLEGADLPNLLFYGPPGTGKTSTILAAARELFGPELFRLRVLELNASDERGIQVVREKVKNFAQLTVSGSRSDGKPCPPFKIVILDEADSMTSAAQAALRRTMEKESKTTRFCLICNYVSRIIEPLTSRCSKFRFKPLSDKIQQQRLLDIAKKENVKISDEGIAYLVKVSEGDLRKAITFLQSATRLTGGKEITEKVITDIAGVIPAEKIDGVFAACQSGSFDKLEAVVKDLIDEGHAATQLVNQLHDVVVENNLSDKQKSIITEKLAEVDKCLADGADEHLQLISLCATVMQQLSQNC

Results are given in words; binding and its absence hold for the method and conditions named. In cells and extracts the contact can be indirect. Some binding calls cover weakened binding; strength is not graded here. Where a sequence is shown, tags or fusion partners need not be part of it.

What all share (test): co-IP; HEK293T cells co-transfected with both partners; whole-cell extracts (buffer X: 100 mM Tris-HCl, 250 mM NaCl, 1 mM EDTA, 1% NP-40, Benzonase, sonication) immunoprecipitated with anti-FLAG or anti-HA antibody, immunoblotting
One test addresses T1, HA-tagged LAP2β (UniProt P42167).
T1 sequence: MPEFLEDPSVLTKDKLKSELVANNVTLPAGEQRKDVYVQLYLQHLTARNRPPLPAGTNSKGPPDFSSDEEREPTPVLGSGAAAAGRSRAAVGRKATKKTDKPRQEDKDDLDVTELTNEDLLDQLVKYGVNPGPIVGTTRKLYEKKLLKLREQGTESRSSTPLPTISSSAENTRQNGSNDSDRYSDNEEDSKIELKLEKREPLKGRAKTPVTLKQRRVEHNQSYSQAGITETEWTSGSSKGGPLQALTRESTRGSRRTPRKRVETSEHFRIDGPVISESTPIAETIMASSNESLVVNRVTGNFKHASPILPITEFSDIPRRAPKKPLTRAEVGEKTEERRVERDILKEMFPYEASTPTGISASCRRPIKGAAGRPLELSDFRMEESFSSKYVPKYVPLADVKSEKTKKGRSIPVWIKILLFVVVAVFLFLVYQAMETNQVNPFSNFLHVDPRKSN

Test [1] deals with 3xFLAG-tagged ATAD5 (human) (UniProt Q96QE3).
For a further test, the target named is 3xFLAG-tagged RFC4 (UniProt P35249).

For the molecule “RFC4 (transiently overexpressed) (from UniProt P35249 1-363)”, the binding entry in the test with HA-tagged LAP2β is “binds”.

B1: HA-tagged LAP2β (protein, UniProt P42167 1-454)
chain: T1 sequence
Consider B1, for which the binding entry (in test [1]; in the test with 3xFLAG-tagged RFC4) was “binds” each time.

B2: RFC1 (transiently overexpressed) (protein, UniProt P35251 1-1148)
chain: MDIRKFFGVIPSGKKLVSETVKKNEKTKSDEETLKAKKGIKEIKVNSSRKEDDFKQKQPSKKKRIIYDSDSESEETLQVKNAKKPPEKLPVSSKPGKISRQDPVTYISETDEEDDFMCKKAASKSKENGRSTNSHLGTSNMKKNEENTKTKNKPLSPIKLTPTSVLDYFGTGSVQRSNKKMVASKRKELSQNTDESGLNDEAIAKQLQLDEDAELERQLHEDEEFARTLAMLDEEPKTKKARKDTEAGETFSSVQANLSKAEKHKYPHKVKTAQVSDERKSYSPRKQSKYESSKESQQHSKSSADKIGEVSSPKASSKLAIMKRKEESSYKEIEPVASKRKENAIKLKGETKTPKKTKSSPAKKESVSPEDSEKKRTNYQAYRSYLNREGPKALGSKEIPKGAENCLEGLIFVITGVLESIERDEAKSLIERYGGKVTGNVSKKTNYLVMGRDSGQSKSDKAAALGTKIIDEDGLLNLIRTMPGKKSKYEIAVETEMKKESKLERTPQKNVQGKRKISPSKKESESKKSRPTSKRDSLAKTIKKETDVFWKSLDFKEQVAEETSGDSKARNLADDSSENKVENLLWVDKYKPTSLKTIIGQQGDQSCANKLLRWLRNWQKSSSEDKKHAAKFGKFSGKDDGSSFKAALLSGPPGVGKTTTASLVCQELGYSYVELNASDTRSKSSLKAIVAESLNNTSIKGFYSNGAASSVSTKHALIMDEVDGMAGNEDRGGIQELIGLIKHTKIPIICMCNDRNHPKIRSLVHYCFDLRFQRPRVEQIKGAMMSIAFKEGLKIPPPAMNEIILGANQDIRQVLHNLSMWCARSKALTYDQAKADSHRAKKDIKMGPFDVARKVFAAGEETAHMSLVDKSDLFFHDYSIAPLFVQENYIHVKPVAAGGDMKKHLMLLSRAADSICDGDLVDSQIRSKQNWSLLPAQAIYASVLPGELMRGYMTQFPTFPSWLGKHSSTGKHDRIVQDLALHMSLRTYSSKRTVNMDYLSLLRDALVQPLTSQGVDGVQDVVALMDTYYLMKEDFENIMEISSWGGKPSPFSKLDPKVKAAFTRAYNKEAHLTPYSLQAIKASRHSTSPSLDSEYNEELNEDDSQSDEKDQDAIETDAMIKKKTKSSKPSKPEKDKEPRKGKGKSSKK
For B2, the binding result with HA-tagged LAP2β is listed as “binds”.
